Results are given in words; binding and its absence hold for the method and conditions named. In cells and extracts the contact can be indirect. For some assays here: Binding calls can cover weak binding; strength is not graded here. Where a sequence is shown, tags or fusion partners need not be part of it.

Protein sequences, listed by entry. Tags and fused reporters are not part of them. Lines headed by an entry give the natural chain unless they say otherwise; changes in a name come on top.
UniProt Q96RK0: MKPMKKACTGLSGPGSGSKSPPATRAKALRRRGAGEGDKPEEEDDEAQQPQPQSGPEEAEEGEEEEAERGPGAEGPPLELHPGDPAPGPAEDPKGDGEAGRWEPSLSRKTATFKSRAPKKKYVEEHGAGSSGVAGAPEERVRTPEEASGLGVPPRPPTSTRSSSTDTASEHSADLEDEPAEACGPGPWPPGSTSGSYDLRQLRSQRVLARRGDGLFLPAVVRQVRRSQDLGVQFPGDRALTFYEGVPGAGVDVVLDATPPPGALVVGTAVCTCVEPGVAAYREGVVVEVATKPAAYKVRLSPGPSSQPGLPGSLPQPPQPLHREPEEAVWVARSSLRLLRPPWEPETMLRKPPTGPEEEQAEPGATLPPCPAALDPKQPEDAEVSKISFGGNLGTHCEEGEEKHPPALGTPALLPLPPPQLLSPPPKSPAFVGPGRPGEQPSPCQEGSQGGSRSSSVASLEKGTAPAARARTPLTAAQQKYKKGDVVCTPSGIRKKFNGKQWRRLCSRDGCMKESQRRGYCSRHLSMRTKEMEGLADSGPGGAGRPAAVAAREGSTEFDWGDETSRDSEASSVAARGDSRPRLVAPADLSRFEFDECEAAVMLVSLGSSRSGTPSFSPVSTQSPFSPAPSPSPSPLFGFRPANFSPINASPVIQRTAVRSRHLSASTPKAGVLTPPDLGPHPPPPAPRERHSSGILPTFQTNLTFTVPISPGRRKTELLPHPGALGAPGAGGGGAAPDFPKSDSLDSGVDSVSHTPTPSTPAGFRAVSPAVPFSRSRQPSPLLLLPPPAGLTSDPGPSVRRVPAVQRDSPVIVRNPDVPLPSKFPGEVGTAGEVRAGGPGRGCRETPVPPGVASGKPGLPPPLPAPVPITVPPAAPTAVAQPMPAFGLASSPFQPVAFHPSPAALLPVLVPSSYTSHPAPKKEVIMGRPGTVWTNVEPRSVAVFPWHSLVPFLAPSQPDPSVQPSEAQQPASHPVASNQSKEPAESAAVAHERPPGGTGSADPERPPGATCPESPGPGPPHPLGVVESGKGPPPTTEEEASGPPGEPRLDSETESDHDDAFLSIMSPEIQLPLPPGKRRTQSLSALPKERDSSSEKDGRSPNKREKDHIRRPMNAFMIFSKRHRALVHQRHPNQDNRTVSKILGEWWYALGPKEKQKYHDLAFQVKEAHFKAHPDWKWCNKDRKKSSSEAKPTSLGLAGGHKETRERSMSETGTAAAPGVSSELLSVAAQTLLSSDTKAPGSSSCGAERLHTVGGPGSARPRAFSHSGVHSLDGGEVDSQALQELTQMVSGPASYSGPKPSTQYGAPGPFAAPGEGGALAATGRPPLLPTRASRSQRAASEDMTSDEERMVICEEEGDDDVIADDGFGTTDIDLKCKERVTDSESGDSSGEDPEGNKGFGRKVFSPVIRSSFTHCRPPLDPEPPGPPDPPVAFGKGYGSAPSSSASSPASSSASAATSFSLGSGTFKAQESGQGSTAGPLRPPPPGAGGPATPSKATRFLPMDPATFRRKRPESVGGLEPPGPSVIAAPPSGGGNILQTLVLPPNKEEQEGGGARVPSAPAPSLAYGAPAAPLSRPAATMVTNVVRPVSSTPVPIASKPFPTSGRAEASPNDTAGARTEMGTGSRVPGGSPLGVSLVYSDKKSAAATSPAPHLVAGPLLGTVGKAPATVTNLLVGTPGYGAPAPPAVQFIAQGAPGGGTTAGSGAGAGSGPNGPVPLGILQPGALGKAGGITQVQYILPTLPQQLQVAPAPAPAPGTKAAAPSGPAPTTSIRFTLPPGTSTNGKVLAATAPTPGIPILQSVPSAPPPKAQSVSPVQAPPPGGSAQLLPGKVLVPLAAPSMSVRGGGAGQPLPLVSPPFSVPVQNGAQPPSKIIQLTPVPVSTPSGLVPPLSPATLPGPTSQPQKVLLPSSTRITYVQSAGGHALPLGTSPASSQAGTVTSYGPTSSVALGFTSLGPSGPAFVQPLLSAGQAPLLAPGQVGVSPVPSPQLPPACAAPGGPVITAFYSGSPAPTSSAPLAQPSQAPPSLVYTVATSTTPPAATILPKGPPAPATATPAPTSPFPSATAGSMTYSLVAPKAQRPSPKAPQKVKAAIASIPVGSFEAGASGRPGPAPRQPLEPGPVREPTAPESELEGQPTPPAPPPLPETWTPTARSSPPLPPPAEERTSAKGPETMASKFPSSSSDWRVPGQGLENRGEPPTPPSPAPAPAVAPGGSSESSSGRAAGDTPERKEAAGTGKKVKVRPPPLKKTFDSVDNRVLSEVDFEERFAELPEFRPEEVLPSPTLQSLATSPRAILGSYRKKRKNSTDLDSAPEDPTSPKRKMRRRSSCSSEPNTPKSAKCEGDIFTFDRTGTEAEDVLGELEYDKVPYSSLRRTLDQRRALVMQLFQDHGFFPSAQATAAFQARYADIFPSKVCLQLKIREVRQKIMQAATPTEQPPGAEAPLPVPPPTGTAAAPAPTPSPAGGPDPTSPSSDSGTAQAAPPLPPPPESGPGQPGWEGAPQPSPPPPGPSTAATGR

Holding throughout (assay): co-IP; HEK293T cotransfected with V5-tagged CIC constructs and FLAG-tagged ATXN1 or ATXN1L; lysis in 75 mM NaCl, 5 mM MgCl2, 50 mM Tris-HCl pH 8.0, 0.5% Triton X-100; IP with V5 antibody on Protein G Dynabeads, 2–4 h at 4°C; blot for FLAG
Assay [1] has as its target V5-tagged human CIC-L, wild type (human).
Assay [2] has as its target V5-tagged human CIC-S W37A (human).
The target of assay [3] is V5-tagged human CIC-L unique N-terminal region (CIC-Lunq) (human).
Assay [4] concerns the target V5-tagged human CIC-L W946A (human).
Assay [5] addresses V5-tagged human CIC-S, wild type (human) (UniProt Q96RK0).

B1: FLAG-tagged human ATXN1L (protein, UniProt P0C7T5 1-689)
chain: MKPVHERSQECLPPKKRDLPVTSEDMGRTTSCSTNHTPSSDASEWSRGVVVAGQSQAGARVSLGGDGAEAITGLTVDQYGMLYKVAVPPATFSPTGLPSVVNMSPLPPTFNVASSLIQHPGIHYPPLHYAQLPSTSLQFIGSPYSLPYAVPPNFLPSPLLSPSANLATSHLPHFVPYASLLAEGATPPPQAPSPAHSFNKAPSATSPSGQLPHHSSTQPLDLAPGRMPIYYQMSRLPAGYTLHETPPAGASPVLTPQESQSALEAAAANGGQRPRERNLVRRESEALDSPNSKGEGQGLVPVVECVVDGQLFSGSQTPRVEVAAPAHRGTPDTDLEVQRVVGALASQDYRVVAAQRKEEPSPLNLSHHTPDHQGEGRGSARNPAELAEKSQARGFYPQSHQEPVKHRPLPKAMVVANGNLVPTGTDSGLLPVGSEILVASSLDVQARATFPDKEPTPPPITSSHLPSHFMKGAIIQLATGELKRVEDLQTQDFVRSAEVSGGLKIDSSTVVDIQESQWPGFVMLHFVVGEQQSKVSIEVPPEHPFFVYGQGWSSCSPGRTTQLFSLPCHRLQVGDVCISISLQSLNSNSVSQASCAPPSQLGPPRERPERTVLGSRELCDSEGKSQPAGEGSRVVEPSQPESGAQACWPAPSFQRYSMQGEEARAALLRPSFIPQEVKLSIEGRSNAGK
Turning to B1, the binding entry in assay [1] was “binds”; in assay [2], “binds”; in assay [3], “no binding”; in assay [4] it was “no binding”; in assay [5], “binds”.

Values taken from publication PMC13390769.
